Tested on: guinea pig ileum
Experiment: Twitch contraction induced by electrical stimulation in guinea pig isolated ileum (Magnus assay)
Conditions: Cavia porcellus, read-out: pD2 value (−log M) (converted)

In the case of `CN1CC[C@]23c4c5ccc(O)c4O[C@H]2[C@@H](O)C=C[C@H]3[C@H]1C5` [Morphine, reference compound], the EC50 is reported as 70.8 nM.
